Reference: patent US20220056087A1 (GLIKNIK, published 2022)

Experiments:
[1] = biological target: T1, mouse SIGN-R1 (immobilized on CM4 chip) (mouse, UniProt Q8CJ91 74-325, limits assumed); test: SPR (Biacore) as in Example 4, SIGN-R1 on the chip
T1 sequence (looked up): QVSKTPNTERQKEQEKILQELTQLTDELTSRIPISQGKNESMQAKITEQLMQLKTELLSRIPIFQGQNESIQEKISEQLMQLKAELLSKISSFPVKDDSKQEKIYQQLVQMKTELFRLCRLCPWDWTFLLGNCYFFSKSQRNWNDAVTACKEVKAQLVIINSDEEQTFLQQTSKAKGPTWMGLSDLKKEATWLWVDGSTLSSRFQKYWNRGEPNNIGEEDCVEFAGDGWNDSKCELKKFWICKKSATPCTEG
Experimental: (§1) FcγRIIIA, FcγRIIB and SIGN-R1 receptors were immobilized to a CM4 chip using amine immobilization to 560, 500, and 1000RU, respectively to compensate for protein size.
(§2) Regeneration was achieved by a 10 sec injection of 1M MgCl at 100 ul/min, followed by a brief wash with running buffer. KDs were calculated using T100 evaluation software.
M045F was first gel fractionated using an AktaXpress protein purification system and a GE HiLoad 16/60 Superdex 200 prep grade column.

[2] = biological target: T2, mouse FcγRIIB (immobilized on CM4 chip) (mouse, UniProt P08101 30-207, limits assumed); test: SPR (Biacore), receptor amine-coupled to a CM4 chip, analyte 500 nM to 1.9 nM; panel 'Mse FcR2B'
T2 construct: also called mouse FcγR2b
T2 sequence (looked up): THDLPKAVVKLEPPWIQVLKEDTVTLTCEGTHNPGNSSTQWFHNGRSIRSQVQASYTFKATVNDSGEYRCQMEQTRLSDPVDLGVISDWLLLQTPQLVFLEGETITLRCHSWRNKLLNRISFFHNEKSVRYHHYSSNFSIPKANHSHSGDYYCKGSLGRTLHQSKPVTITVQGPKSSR
Experimental: as §1, §2

[3] = biological target: T3, mouse FcγRIIIA (immobilized on CM4 chip) (mouse, UniProt P08508 31-215); test: SPR (Biacore), receptor amine-coupled to a CM4 chip, analyte 500 nM to 1.9 nM; panel 'Mse FcR3A'
T3 construct: also called mouse FcγR3A
T3 sequence (looked up): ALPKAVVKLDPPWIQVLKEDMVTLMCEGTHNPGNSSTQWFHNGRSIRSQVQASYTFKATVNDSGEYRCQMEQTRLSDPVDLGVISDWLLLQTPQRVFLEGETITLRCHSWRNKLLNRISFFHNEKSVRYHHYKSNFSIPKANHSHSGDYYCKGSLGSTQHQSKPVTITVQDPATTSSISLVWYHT
Experimental: as §1, §2

Kd [1]: 74.1 nM
Kd [2]: 47.9 nM
Kd [3]: 33.4 nM
B1: M046 stradomer (Fc fusion)
chain: DEPRGPTIKPCPPCKCPAPNLLGGPSVFIFPPKIKDVLMISLSPIVTCVVVDVSEDDPDVQISWFVNNVEVHTAQTQTHREDYNSTLRVVSALPIQHQDWMSGKEFKCKVNNKDLPAPIERTISKPKGSVRAPQVYVLPPPEEEMTKKQVTLTCMVTDFMPEDIYVEWTNNGKTELNYKNTEPVLDSDGSYFMYSKLRVEKKNWVERNSYSCSVVHEGLHNHHTTKSFSRTPGKGGGSIKQIEDKIEEILSKIYHIENEIARIKKLIGERG
notes: Murine counterpart of G046 (Fc with C-terminal isoleucine zipper); The entry may include a leader
